Measurements taken from paper PMC10936184.
No constants are given. Whether binding was seen depends on the method and setting.

By UniProt entry, the sequences of proteins in these tests, tags left out. Where a name states a change or a piece, a line headed by the entry shows the natural chain unless it says otherwise.
UniProt P33046: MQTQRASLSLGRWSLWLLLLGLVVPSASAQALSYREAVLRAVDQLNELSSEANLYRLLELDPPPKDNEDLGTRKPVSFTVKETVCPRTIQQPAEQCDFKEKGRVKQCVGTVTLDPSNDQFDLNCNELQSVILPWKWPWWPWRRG

Biological target: MipA-His6 (Pseudomonas aeruginosa)
Test: condition: up to 1:4 molar ratio, which corresponds to 25 µM; nano-DSF; thermal shift: pure MipA alone or incubated for 2 h at room temperature with ligand at molar ratios from 1:1 to 1:40 (up to 200 µM), heated from 20°C to 95°C; buffer with 0.1% LAPAO; Tm from F350:F330; both purified

## ILPWKWPWWPWRRG (peptide, UniProt P33046 131-144) [indolicidin]
  binding: no binding
